Assay results published in publication doi:10.1101/2021.06.06.447232.
No constants are given. Whether binding was seen depends on the method and setting. In cells and extracts the contact can be indirect. Binding calls can cover weak binding; strength is not graded here.

Sequences of proteins named here, by UniProt entry; tags and fusion partners are left off. A change or cut given only in a name is not applied to a line headed by its entry. Residues count along the entry.
UniProt P16870: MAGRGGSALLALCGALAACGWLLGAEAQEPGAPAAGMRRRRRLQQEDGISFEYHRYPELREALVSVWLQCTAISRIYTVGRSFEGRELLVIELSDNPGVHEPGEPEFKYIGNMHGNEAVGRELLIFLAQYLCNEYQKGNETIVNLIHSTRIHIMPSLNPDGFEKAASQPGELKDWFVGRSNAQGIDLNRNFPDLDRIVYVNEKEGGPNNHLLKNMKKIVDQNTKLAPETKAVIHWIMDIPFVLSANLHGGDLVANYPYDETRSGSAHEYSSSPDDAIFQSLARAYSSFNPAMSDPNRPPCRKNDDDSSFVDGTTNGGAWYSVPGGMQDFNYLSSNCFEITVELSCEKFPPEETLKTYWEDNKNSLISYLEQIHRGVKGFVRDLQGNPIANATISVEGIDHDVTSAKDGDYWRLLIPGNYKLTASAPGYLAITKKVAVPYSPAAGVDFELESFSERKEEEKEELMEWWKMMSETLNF
UniProt P11021, residues 19-654: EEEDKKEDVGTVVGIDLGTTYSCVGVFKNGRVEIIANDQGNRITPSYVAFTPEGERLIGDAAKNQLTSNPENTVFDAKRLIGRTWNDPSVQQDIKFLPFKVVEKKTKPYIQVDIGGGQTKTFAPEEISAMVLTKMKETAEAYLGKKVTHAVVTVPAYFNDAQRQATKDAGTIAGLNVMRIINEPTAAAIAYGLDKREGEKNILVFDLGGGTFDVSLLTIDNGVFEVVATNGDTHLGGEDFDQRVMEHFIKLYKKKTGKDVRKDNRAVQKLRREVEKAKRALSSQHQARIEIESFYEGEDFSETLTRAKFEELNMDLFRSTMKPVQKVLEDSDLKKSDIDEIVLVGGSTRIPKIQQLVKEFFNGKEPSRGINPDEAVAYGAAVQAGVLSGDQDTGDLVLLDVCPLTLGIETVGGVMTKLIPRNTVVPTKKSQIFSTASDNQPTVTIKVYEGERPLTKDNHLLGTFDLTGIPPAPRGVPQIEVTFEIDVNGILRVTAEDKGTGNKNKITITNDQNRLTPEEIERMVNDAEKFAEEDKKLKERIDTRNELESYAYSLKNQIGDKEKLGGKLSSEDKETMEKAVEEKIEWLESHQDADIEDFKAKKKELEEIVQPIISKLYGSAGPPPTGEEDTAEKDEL

Biological target: full length CPE-GFP (carboxypeptidase E tagged at the C-terminal with GFP) (UniProt P16870)
Experiment: co-IP

binding: binds
Substance: GRP78-mCherry (from UniProt P11021 19-654)
